Experimental findings from paper PMC4771989, “Development of a Rapid Throughput Assay for Identification of hNav1.7 Antagonist Using Unique Efficacious Sodium Channel Agonist, Antillatoxin” (Marine Drugs, 2016) are described below.

Sequences of proteins named here, by UniProt entry; tags and fusion partners are left off.
UniProt Q15858, whole entry: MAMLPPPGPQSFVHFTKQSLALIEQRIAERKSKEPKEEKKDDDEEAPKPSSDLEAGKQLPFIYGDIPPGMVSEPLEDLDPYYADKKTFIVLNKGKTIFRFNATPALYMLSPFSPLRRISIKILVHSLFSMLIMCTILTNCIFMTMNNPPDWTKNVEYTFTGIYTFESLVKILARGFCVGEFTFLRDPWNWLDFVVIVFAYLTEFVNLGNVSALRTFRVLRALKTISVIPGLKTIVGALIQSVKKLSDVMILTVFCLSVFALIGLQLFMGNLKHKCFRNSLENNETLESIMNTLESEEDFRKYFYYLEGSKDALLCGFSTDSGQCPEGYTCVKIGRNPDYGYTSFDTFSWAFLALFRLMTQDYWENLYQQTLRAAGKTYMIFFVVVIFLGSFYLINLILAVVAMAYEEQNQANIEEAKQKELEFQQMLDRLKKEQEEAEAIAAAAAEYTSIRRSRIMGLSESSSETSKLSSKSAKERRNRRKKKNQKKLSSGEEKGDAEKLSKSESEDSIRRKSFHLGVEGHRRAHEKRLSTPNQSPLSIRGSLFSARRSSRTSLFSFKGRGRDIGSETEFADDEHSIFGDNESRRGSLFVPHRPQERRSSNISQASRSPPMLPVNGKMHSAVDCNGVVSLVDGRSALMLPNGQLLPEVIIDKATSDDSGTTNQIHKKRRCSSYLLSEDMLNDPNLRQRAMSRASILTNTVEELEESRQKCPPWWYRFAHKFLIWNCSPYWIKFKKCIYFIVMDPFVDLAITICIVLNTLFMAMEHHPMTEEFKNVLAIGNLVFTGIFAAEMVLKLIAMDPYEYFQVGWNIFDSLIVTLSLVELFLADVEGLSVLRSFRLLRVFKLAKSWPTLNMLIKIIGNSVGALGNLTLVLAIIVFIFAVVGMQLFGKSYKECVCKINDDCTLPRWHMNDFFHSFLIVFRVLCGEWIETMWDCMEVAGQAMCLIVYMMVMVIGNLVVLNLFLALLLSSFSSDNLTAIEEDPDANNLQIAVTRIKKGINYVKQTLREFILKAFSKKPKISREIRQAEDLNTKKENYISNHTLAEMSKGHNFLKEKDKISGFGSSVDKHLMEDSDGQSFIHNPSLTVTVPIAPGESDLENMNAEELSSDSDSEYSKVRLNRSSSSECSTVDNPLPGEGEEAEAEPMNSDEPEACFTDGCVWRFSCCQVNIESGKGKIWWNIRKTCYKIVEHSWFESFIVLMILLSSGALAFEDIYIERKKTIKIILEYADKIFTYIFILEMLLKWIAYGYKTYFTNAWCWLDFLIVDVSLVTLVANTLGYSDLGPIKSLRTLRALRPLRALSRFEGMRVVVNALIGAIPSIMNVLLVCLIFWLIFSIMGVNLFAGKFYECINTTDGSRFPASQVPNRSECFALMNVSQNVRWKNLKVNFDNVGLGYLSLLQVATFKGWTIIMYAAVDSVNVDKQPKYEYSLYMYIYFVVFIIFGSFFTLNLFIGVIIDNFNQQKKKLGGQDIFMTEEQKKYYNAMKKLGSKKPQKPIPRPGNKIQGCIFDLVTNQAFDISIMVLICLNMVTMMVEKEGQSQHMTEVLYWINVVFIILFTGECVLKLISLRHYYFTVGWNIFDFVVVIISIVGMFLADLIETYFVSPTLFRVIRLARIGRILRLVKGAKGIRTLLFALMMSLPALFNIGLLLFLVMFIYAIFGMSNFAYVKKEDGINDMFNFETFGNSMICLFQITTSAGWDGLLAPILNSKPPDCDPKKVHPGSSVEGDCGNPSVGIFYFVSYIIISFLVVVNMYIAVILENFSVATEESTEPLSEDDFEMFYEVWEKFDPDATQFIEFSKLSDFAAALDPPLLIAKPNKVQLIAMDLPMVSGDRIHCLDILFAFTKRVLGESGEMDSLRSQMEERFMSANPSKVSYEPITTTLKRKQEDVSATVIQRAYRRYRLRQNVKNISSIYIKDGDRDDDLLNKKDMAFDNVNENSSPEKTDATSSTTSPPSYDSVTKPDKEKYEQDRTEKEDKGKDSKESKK

The test has as its target hNav1.7 (Homo sapiens, UniProt Q15858). The experiment in a line: cell-based. Format: cell-based. On the procedure:
The cells were plated onto poly-D-lysine (10 μg/mL) coated, 96-well, black-walled, clear-bottom plates at an initial density of 20,000 cells/well and cultured for 6 h. […] Cells were then incubated at room temperature for 30 min. The plate was then transferred to a FLIPR®TETRA (Molecular Devices, Sunnyvale, CA, USA) chamber. […] After recording the basal fluorescence for 120 s, 50 μL of sodium channel agonists at different concentrations (prepared in 1× dye at 4× final drug concentrations) or vehicle (0.4% DMSO, 4×) were added to different wells by an automated, programmable pipetting system. The fluorescence was recorded for additional 5–6 min at a sampling rate of 1 s. To examine the VGSC antagonist response on ATX-stimulated membrane depolarization, after recording the basal fluorescence for 120 s, different concentrations of VGSC antagonists were added to corresponding wells and the fluorescence was recorded for additional 5 min followed by an addition of 40 nM (4×, final concentration, 10 nM) ATX. The fluorescence signals were presented as F/F0, where F was defined as the fluorescence at different time points; F0 was the basal fluorescence averaged from initial 5 data points.
Time-response and concentration-response relationships curves were generated using GraphPad Prism 5 software (GraphPad Software, Inc., San Diego, CA, USA). […]

As a reminder, the IC50 is the concentration that gives 50% inhibition. A higher IC50 goes with lower potency. As to `Nc1nc2ccc(OC(F)(F)F)cc2s1` [Riluzole, riluzole], the IC50 was found to be 3.58 µM and the “maximal inhibition of ATX-induced membrane depolarization” value was “nearly complete inhibition”.
